Measurements: patent publication US5082926A, “Polypeptide with type IV collagen cell adhesion, spreading and motility activity” (Regents of the University of Minnesota, priority 1989, dated 1992)
Read-outs that look alike come from different tables or passages of the source. At least one peptide structure holds a part that was inferred or is arguable (an end, a ring closure or a residue). Residues, ends and D or L forms follow the SMILES beside them.

Columns and labels:
M4 melanoma cells [1] = system: M4 melanoma cells
M4 melanoma cells [2] = system: M4 melanoma cells; remark: listed apart in the source
K 1735 M4 melanoma cells = assay: Melanoma cell adhesion and spreading on peptide-coated Immulon 1 wells; assay type: cell-based, mouse
Protocol: Subconfluent cultures of M4 melanoma cells were radiolabeled overnight with 2 μCi/ml ^3 H-thymidine. […] The melanoma cells were then washed and resuspended to a final concentration of 3-4×10^4 cells/ml in DME supplemented with 20 mM Hepes and 10 mg/ml BSA. The cells remained viable (>95%) after this procedure, based upon exclusion of trypan blue dye.
(§1) Immulon 1 microtiter plates were prepared by drying down 100 μl/well of IV-H1 peptide which had been diluted to various concentrations (1-500 μg/ml) in Voller's carbonate buffer. The ability of the IV-H1 peptide to bind the plates was determined using radioiodinated peptides (described previously) in order to be certain that any differences in cell adhesion (or spreading) were not due to differential binding to surfaces. Nonspecific cell adhesion to sites on the plastic was blocked by the use of a 10 mg/ml solution of BSA in Voller's carbonate buffer at 37° C. for 1 hr. The Voller's/BSA solution was then aspirated and 5-6×10^3 M4 melanoma cells were added to each well in 150 μl of adhesion media (DME containing 20 mM Hepes and 10 mg/ml BSA). The cells were incubated for 30-40 min. at 37° C. (or up to 90 min. for certain assays), at which time cells were either visualized for spreading or harvested to determine adhesion. Adhesion was quantitated after washing to remove nonadherent and weakly adherent cells, by solubilizing the cells with 150 μl/well of 0.5N NaOH containing 1% SDS. Bound radioactivity was quantitated in a Beckman LS 3801 liquid scintillation counter. Spreading determinations were made by two different individuals, in double blind studies by visualizing at least 100 cells/well and calculating the percentage of spread cells. Each experiment was repeated a minimum of three times, and within a given experiment, each experimental point was determined in triplicate.

UV 2237 fibrosarcoma = assay: Cell adhesion and spreading on coated peptide IV-H1 or type IV collagen; assay type: cell-based, murine; conditions: surface coated at 100 μg/ml
Protocol: (§2) To characterize peptide IV-H1, the interaction of the peptide with other cell lines was investigated. These cell lines include the highly metastatic human melanoma cell line A375 M (also provided by Dr. Fidler), which was maintained in MEM with added vitamins and 10% FBS; and the fibrosarcoma cell line UV2237 MM, which was maintained in DME with 10% FBS. […]
(§3) Immulon 1 microtiter plates were prepared by drying down 100 μl/well of IV-H1 peptide which had been diluted to various concentrations (1-500 μg/ml) in Voller's carbonate buffer. The ability of the IV-H1 peptide to bind the plates was determined using radioiodinated peptides (described previously) in order to be certain that any differences in cell adhesion (or spreading) were not due to differential binding to surfaces. […] Adhesion was quantitated after washing to remove nonadherent and weakly adherent cells, by solubilizing the cells with 150 μl/well of 0.5N NaOH containing 1% SDS. Bound radioactivity was quantitated in a Beckman LS 3801 liquid scintillation counter. […] Each experiment was repeated a minimum of three times, and within a given experiment, each experimental point was determined in triplicate. […]

C6 glioma = assay: as above; assay type: cell-based, rat; conditions: surface coated at 100 μg/ml
Text: (§4) To characterize peptide IV-H1, the interaction of the peptide with other cell lines was investigated. These cell lines include the highly metastatic human melanoma cell line A375 M (also provided by Dr. Fidler), which was maintained in MEM with added vitamins and 10% FBS; and the fibrosarcoma cell line UV2237 MM, which was maintained in DME with 10% FBS. Other cell lines studied included: the C6 rat glioma cell line (ATCC, #CCL107), which was maintained in DME plus 10% CS; the SCC9 human squamous carcinoma cell line (ATCC, #CRL1629), which was maintained in a 1:1 solution of DME and HAM F12 containing 10% FBS; the B65 and B104 murine neuroblastoma cell lines which were obtained from Dr. David Schubert at the Salk Institute (Schuber et al., Nature, 249, 224-227 (1974)) and maintained in F12H media with supplements; and bovine aortic endothelial cells, which were isolated and maintained as described by Herbst et al., J. Cell Biol., 106, 1365-1373 (1988), the disclosure of which is incorporated by reference herein.
as §1
(§5) In order to ensure that peptide IV-H1-mediated cell adhesion and spreading was not unique to K1735 M4 melanoma cells, various other cell types were screened for adhesion and spreading on surfaces coated with the peptide. Cells of different embryonic origin and from various species were studied for the ability to adhere and spread on surfaces coated with peptide IV-H1. […] In all cases, cell adhesion and spreading on surfaces coated with BSA or control peptides was <5%.

B65 neuroblastoma = assay: as above; assay type: cell-based, rat; conditions: surface coated at 100 μg/ml
Text: as §4, §1, §5

B104 neuroblastoma = assay: as above; assay type: cell-based, rat; conditions: surface coated at 100 μg/ml
Text: as §4, §1, §5

[3] = system: Bovine aortic endothelial cells; assay: as above; assay type: cell-based; conditions: surface coated at 100 μg/ml
Protocol: as §2, §3

[4] = system: Squamous carcinoma cell line (SCC9); assay: as above; assay type: cell-based, human; conditions: surface coated at 100 μg/ml
Text: as §4, §1
(§6) In order to ensure that peptide IV-H1-mediated cell adhesion and spreading was not unique to K1735 M4 melanoma cells, various other cell types were screened for adhesion and spreading on surfaces coated with the peptide. […]

A375 M melanoma = assay: as above; assay type: cell-based, human; conditions: surface coated at 100 μg/ml
Text: as §4, §1, §6

M4 melanoma cells [5] = assay: Melanoma cell motility in microchemotaxis chambers on coated filters; assay type: cell-based, mouse
Protocol: In light of the involvement of cell adhesion and spreading in motility, peptide IV-H1 was studied for its ability to directly promote melanoma cell motility. Peptide-mediated M4 melanoma cell motility was examined in 48-well microchemotaxis chambers (Neuroprobe, Bethesda, MD) equipped with 8 μm pore size polyvinylpyrrolidone-free polycarbonate filters by a modification of a procedure described by Herbst et al., supra. Briefly, peptides were diluted in Voller's carbonate buffer and added in triplicate 50 μl aliquots to the lower wells of the chambers. The chambers were assembled with the filters in place and incubated overnight at 37° C. to allow the peptides to adsorb to the lower surfaces of the filters. The filters were then washed and transferred to fresh chambers which contained only media (DME containing 20 mM Hepes, pH 7.4). Cells were then added to the upper wells at 20,000/well in DME/Hepes media and incubated for 6 hr. at 37° C. in a humidified CO2 chamber. Filters were then washed, fixed and stained, and the number of cells which had migrated through the filters was quantitated using an Optomax Image Analysis System as described in Herbst et al., supra. Each experiment was repeated a minimum of three times. […] This compares with melanoma cell motility of 10-fold background levels in response to a 10 μg/ml solution of intact type IV collagen (FIG. 4b).

[6] = system: Dorsal Root Ganglia neurons; assay: Neuron adhesion and neurite extension on coated peptide IV-H1; assay type: cell-based; conditions: 9-day chick embryo dorsal root ganglia, 24 hours
[7] = soluble peptide 500 μg/ml (highest tested)

CC(C)[C@H](NC(=O)CN)C(=O)N1CCC[C@H]1C(=O)NCC(=O)N[C@@H](CCCCN)C(=O)N[C@@H](CC(=O)O)C(=O)NCC(=O)N[C@@H](CCC(N)=O)C(=O)N[C@@H](C)C(=O)NCC(=O)N[C@@H](CCC(N)=O)C(=O)N1CCC[C@H]1C(=O)NCC(=O)N[C@@H](CCC(N)=O)C(=O)N1CCC[C@H]1C(=O)N[C@@H](Cc1ccc(O)cc1)C(=O)O [peptide 17, GVPGKDGQAGQPGQP(Y), reference compound] (H-GVPGKDGQAGQPGQPY-OH)
effect on type IV collagen-mediated cell motility (M4 melanoma cells [1]; soluble peptide): no effect | effect on cell spreading on peptide IV-H1-coated surfaces (M4 melanoma cells [2]; excess soluble peptide): no effect | effect on cell spreading on type IV collagen-coated surfaces (M4 melanoma cells [2]; excess soluble peptide): no effect | inhibition of melanoma cell adhesion on type IV collagen-coated surfaces (M4 melanoma cells [2]; [7]): no effect | promotion of melanoma cell adhesion or spreading (K 1735 M4 melanoma cells; coated peptide): does not promote melanoma cell adhesion or spreading

CC(C)[C@H](NC(=O)CN)C(=O)N[C@@H](CCCCN)C(=O)NCC(=O)N[C@@H](CC(=O)O)C(=O)N[C@@H](CCCCN)C(=O)NCC(=O)N[C@@H](CC(N)=O)C(=O)N1CCC[C@H]1C(=O)NCC(=O)N[C@@H](Cc1c[nH]c2ccccc12)C(=O)N1CCC[C@H]1C(=O)NCC(=O)N[C@@H](C)C(=O)N1CCC[C@H]1C(=O)O [peptide IV-H1, GVKGDKGNPGWPGAP] (H-GVKGDKGNPGWPGAP-OH)
inhibition of melanoma cell motility through filters precoated with type I collagen (M4 melanoma cells [1]; presence of soluble peptide): not inhibited | effect on melanoma cell adhesion on type I collagen-coated surfaces (M4 melanoma cells [2]; presence of soluble peptide): not affected | effect on percent of cells spreading on type I collagen-coated surfaces (M4 melanoma cells [2]; pretreatment of cells with peptide): no effect | inhibition of melanoma cell adhesion on type IV collagen-coated surfaces (M4 melanoma cells [2]; soluble peptide 20 μg/ml, coat 5 μg/ml): 20% | inhibition of melanoma cell adhesion on peptide IV-H1-coated surfaces (M4 melanoma cells [2]; soluble peptide 20 μg/ml, coat 50 μg/ml): ~40% | decrease of cell spreading on type IV collagen-coated surfaces (M4 melanoma cells [2]; soluble peptide 200 μg/ml (highest studied)): 50% | inhibition of melanoma cell adhesion on peptide IV-H1-coated surfaces (M4 melanoma cells [2]; [7]): 80% | inhibition of melanoma cell adhesion on type IV collagen-coated surfaces (M4 melanoma cells [2]; [7]): 70% | maximal melanoma cell spreading (% of input cells) (K 1735 M4 melanoma cells; 100 μg/ml coating concentration, within 40 min): approximately 70% | % SP (percent of input cells which spread) (K 1735 M4 melanoma cells; K1735 M4 melanoma, surface coated at 100 μg/ml): 70% | % AD (percent of input cells which adhered) (K 1735 M4 melanoma cells; K1735 M4 melanoma, surface coated at 100 μg/ml, average of three experiments): 22.4% | melanoma cell adhesion (% of input cells) (K 1735 M4 melanoma cells; coating concentration 10 μg/ml): 35% | maximal melanoma cell adhesion (% of input cells) (K 1735 M4 melanoma cells; wells coated with 100 μg/ml solution): > 50% | % AD (percent of input cells which adhered) (UV 2237 fibrosarcoma): 1.1% | % SP (percent of input cells which spread) (UV 2237 fibrosarcoma): 0% | % AD (percent of input cells which adhered) (C6 glioma): 35.9% | % SP (percent of input cells which spread) (C6 glioma): 82% | % AD (percent of input cells which adhered) (B65 neuroblastoma): 4.6% | % SP (percent of input cells which spread) (B65 neuroblastoma): 0% | % AD (percent of input cells which adhered) (B104 neuroblastoma): 18.5% | % SP (percent of input cells which spread) (B104 neuroblastoma): 20% | % AD (percent of input cells which adhered) [3]: 0.8% | % SP (percent of input cells which spread) [3]: 0% | % AD (percent of input cells which adhered) [4]: 1.9% | % SP (percent of input cells which spread) [4]: 0% | % AD (percent of input cells which adhered) (A375 M melanoma): 16.3% | % SP (percent of input cells which spread) (A375 M melanoma): 78% | maximal melanoma cell motility (M4 melanoma cells [5]; filter coated with 100-200 μg/ml solution): 5 times BSA control levels | melanoma cell motility relative to BSA control levels (M4 melanoma cells [5]; filter coating level 20 μg/ml): twice | coating concentration causing highest extension of neurites from adherent neurons [6]: 50 µg/mL | coating concentration resulting in maximal neuron adhesion [6]: 5 µg/mL
